Reference: patent US20230303690A1 (published 2023)
Results are given in words; binding and its absence hold for the method and conditions named. Some binding calls cover weakened binding; strength is not graded here. Where a sequence is shown, tags or fusion partners need not be part of it.

Target: T1, LAG3 Protein, Human, Recombinant (His Tag) (Sino Biological Catalog No. 16498-H08H) (human) (UniProt P18627)
T1 sequence (looked up): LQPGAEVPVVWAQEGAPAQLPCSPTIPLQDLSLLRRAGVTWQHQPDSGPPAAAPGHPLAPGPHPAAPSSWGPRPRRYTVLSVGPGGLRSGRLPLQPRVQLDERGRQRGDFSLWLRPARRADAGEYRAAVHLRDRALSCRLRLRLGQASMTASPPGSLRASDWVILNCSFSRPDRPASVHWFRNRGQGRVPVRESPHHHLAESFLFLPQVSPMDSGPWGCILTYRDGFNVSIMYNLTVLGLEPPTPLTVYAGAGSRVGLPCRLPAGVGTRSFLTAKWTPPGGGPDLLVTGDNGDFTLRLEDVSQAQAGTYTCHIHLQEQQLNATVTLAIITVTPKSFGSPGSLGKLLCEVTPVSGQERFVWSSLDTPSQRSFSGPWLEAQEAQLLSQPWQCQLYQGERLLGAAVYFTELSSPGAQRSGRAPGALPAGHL
Assay: ELISA, coated hLAG3-His

B1: sdAb No. 25-B6 (VHH)
VHH: QLQLVESGGGLVKPGGSLRLSCAASGSIESFSFMGWYRQAPGKQREWVAGFTGAASLSFSTYTDAVKGRFTISRDNAKNSVYLQMNSLRAEDTAVYYCNVDPWSQSWPGRYWGQGTTVTVSS
notes: Humanized sdAb No. 25; not shown: Fc part implied by anti-human IgG1 Fc detection
For B1, the binding was “binds”.
